Assay results taken from paper PMC9065181.
Results are given in words; binding and its absence hold for the method and conditions named. In cells and extracts the contact can be indirect. Some binding calls cover weakened binding; strength is not graded here.

By UniProt entry, the sequences of proteins in these tests, tags left out.
UniProt P17182: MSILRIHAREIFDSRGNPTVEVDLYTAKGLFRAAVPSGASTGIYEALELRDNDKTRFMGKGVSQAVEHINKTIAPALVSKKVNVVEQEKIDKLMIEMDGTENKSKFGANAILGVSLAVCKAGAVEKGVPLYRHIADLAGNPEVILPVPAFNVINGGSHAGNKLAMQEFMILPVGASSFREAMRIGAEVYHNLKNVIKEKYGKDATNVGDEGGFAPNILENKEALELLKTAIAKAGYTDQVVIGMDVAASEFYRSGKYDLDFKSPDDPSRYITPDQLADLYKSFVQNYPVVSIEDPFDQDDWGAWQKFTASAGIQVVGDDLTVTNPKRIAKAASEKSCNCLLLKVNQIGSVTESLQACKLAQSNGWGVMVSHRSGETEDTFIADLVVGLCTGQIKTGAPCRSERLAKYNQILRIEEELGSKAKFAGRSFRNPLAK

Target: enolase 1 (mouse (endogenous in 4T1.2)) (UniProt P17182)
Test: co-IP; protein extracts from 4T1.2 cells, precleared with protein A agarose beads and rabbit IgG; overnight immunoprecipitation with beads conjugated with anti-Eno1 antibodies; washed three times with PBS; Western blot for Eno1 and CD44

binding: binds
B1: CD44 (receptor, UniProt P15379 23-778)
chain: QIDLNVTCRYAGVFHVEKNGRYSISRTEAADLCQAFNSTLPTMDQMKLALSKGFETCRYGFIEGNVVIPRIHPNAICAANHTGVYILVTSNTSHYDTYCFNASAPPEEDCTSVTDLPNSFDGPVTITIVNRDGTRYSKKGEYRTHQEDIDASNIIDDDVSSGSTIEKSTPEGYILHTYLPTEQPTGDQDDSFFIRSTLATIASTVHSKSHAAAQKQNNWIWSWFGNSQSTTQTQEPTTSATTALMTTPETPPKRQEAQNWFSWLFQPSESKSHLHTTTKMPGTESNTNPTGWEPNEENEDETDTYPSFSGSGIDDDEDFISSTIATTPRVSARTEDNQDWTQWKPNHSNPEVLLQTTTRMADIDRISTSAHGENWTPEPQPPFNNHEYQDEEETPHATSTTPNSTAEAAATQQETWFQNGWQGKNPPTPSEDSHVTEGTTASAHNNHPSQRITTQSQEDVSWTDFFDPISHPMGQGHQTESKDTDSSHSTTLQPTAAPNTHLVEDLNRTGPLSVTTPQSHSQNFSTLHGEPEEDENYPTTSILPSSTKSSAKDARRGGSLPTDTTTSVEGYTFQYPDTMENGTLFPVTPAKTEVFGETEVTLATDSNVNVDGSLPGDRDSSKDSRGSSRTVTHGSELAGHSSANQDSGVTTTSGPMRRPQIPEWLIILASLLALALILAVCIAVNSRRRCGQKKKLVINGGNGTVEDRKPSELNGEASKSQEMVHLVNKEPSETPDQCMTADETRNLQSVDMKIGV
